# These are yes or no findings as the source states them, for the method shown. Binding seen in cells or lysates may run through a third protein. Some entries that bind do so weakly or less than the wild type. For some assays here: Tags and fused reporters may be left off the sequences shown.
# By UniProt entry, the sequences of proteins in these tests, tags left out. Where a name states a change or a piece, a line headed by the entry shows the natural chain unless it says otherwise.
# UniProt O70511: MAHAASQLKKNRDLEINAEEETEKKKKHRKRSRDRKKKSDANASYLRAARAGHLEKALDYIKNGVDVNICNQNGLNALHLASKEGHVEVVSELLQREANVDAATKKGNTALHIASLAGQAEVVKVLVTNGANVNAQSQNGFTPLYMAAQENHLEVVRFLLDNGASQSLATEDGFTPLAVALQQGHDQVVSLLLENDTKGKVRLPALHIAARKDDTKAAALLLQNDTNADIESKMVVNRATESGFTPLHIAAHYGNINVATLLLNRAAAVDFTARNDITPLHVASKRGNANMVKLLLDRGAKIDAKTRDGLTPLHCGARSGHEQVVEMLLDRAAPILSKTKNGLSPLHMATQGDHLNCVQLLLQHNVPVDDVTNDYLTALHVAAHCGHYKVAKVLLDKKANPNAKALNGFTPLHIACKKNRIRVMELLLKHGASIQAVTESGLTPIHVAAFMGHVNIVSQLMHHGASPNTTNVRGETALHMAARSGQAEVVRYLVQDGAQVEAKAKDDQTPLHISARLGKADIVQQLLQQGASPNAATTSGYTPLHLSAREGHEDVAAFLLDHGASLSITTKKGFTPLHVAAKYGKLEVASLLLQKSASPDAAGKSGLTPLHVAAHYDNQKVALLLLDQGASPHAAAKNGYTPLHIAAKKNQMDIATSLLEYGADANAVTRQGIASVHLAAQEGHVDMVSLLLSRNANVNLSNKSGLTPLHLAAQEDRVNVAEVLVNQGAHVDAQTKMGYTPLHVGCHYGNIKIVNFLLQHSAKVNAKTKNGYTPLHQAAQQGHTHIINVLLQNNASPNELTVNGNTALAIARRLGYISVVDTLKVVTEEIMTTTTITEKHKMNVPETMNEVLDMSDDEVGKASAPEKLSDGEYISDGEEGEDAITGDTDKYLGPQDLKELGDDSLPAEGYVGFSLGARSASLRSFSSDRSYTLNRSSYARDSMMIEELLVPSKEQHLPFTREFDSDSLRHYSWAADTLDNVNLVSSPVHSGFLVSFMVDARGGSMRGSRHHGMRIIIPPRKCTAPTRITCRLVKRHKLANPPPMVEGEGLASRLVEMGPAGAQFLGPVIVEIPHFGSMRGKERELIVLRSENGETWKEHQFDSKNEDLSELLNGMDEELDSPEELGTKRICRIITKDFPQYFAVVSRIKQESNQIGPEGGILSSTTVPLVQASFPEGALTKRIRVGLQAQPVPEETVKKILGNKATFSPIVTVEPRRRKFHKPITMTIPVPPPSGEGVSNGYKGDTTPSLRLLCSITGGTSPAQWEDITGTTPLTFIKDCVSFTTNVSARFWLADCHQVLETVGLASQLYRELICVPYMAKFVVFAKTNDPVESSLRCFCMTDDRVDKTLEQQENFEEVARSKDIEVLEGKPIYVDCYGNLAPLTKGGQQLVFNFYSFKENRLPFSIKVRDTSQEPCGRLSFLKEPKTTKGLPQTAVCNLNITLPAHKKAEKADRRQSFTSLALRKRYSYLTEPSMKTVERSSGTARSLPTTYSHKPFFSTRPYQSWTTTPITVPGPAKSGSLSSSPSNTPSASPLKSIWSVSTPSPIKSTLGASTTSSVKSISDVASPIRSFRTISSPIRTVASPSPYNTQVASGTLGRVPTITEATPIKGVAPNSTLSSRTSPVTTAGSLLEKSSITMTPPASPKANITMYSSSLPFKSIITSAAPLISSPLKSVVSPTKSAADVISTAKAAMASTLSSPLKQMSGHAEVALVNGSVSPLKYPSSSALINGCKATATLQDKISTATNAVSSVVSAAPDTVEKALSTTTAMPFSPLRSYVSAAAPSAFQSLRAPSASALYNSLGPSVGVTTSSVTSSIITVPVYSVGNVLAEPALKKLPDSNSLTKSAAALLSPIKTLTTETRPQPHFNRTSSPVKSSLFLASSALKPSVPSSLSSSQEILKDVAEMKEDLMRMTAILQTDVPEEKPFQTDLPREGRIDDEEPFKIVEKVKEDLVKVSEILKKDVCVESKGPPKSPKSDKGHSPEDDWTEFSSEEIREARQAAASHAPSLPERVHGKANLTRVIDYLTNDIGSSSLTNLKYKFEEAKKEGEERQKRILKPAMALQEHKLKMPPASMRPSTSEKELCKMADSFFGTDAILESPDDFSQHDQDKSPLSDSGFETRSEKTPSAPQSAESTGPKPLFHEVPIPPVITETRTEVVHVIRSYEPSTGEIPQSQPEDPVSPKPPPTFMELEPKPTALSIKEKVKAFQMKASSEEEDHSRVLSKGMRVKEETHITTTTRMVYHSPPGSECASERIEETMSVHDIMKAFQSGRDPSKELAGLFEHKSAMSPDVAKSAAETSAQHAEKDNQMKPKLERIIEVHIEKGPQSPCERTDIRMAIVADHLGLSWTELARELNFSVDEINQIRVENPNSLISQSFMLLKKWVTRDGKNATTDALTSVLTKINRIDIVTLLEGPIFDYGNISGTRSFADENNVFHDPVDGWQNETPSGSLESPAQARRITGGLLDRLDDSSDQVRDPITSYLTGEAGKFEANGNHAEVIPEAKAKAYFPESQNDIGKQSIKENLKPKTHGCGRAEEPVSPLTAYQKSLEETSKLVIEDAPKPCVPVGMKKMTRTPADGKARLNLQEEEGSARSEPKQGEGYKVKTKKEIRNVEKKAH
# B1: Flag-hPrickle2 (human Prickle-like protein 2 tagged with three flag sequences in the N terminus) (protein, UniProt Q7Z3G6 1-844)
# chain: MVTVMPLEMEKTISKLMFDFQRNSTSDDDSGCALEEYAWVPPGLKPEQVHQYYSCLPEEKVPYVNSPGEKLRIKQLLHQLPPHDNEVRYCNSLDEEEKRELKLFSSQRKRENLGRGNVRPFPVTMTGAICEQCGGQINGGDIAVFASRAGHGVCWHPPCFVCTVCNELLVDLIYFYQDGKIYCGRHHAECLKPRCAACDEIIFADECTEAEGRHWHMKHFCCFECETVLGGQRYIMKEGRPYCCHCFESLYAEYCDTCAQHIGIDQGQMTYDGQHWHATETCFCCAHCKKSLLGRPFLPKQGQIFCSRACSAGEDPNGSDSSDSAFQNARAKESRRSAKIGKNKGKTEEPMLNQHSQLQVSSNRLSADVDPLSLQMDMLSLSSQTPSLNRDPIWRSREEPYHYGNKMEQNQTQSPLQLLSQCNIRTSYSPGGQGAGAQPEMWGKHFSNPKRSSSLAMTGHAGSFIKECREDYYPGRLRSQESYSDMSSQSFSETRGSIQVPKYEEEEEEEGGLSTQQCRTRHPISSLKYTEDMTPTEQTPRGSMESLALSNATGLSADGGAKRQEHLSRFSMPDLSKDSGMNVSEKLSNMGTLNSSMQFRSAESVRSLLSAQQYQEMEGNLHQLSNPIGYRDLQSHGRMHQSFDFDGGMAGSKLPGQEGVRIQPMSERTRRRATSRDDNRRFRPHRSRRSRRSRSDNALHLASEREAISRLKDRPPLRAREDYDQFMRQRSFQESMGHGSRRDLYGQCPRTVSDLALQNAFGDRWGPYFAEYDWCSTCSSSSESDNEGYFLGEPIPQPARLRYVTSDELLHKYSSYGLPKSSTLGGRGQLHSRKRQKSKNCIIS
# B2: Prickle2, endogenous in P21 rat cortex (protein, UniProt A6IBC5 1-847)
# chain: MVTVMPLEMEKTISKLMFDFQRNSTSDDDSGCALEEYAWVPPGLKPEQVHQYYSCLPEEKVPYVNSPGEKLRIKQLLHQLPPHDNEVRYCNSLDEEEKRELKLFSNQRKRENLGRGNVRPFPVTMTGAICEQCGGQIKGGDIAVFASRAGHGICWHPPCFICTVCNELLVDLIYFYQDGKIYCGRHHAECLKPRCAACDEIIFADECTEAEGRHWHMRHFCCFECETVLGGQRYIMKEGRPYCCHCFESLYAEYCDTCAQHIGIDQGQMTYDGQHWHATENCFCCAHCKKSLLGRPFLPKQGQIFCSRACSAGEDPNGSDSSDSAFQNARAKESRRSAKIGKNKGKTEETMLNQHSQLQVSSNRLSADVDPLSVQMDLLSLSSQTPSLNRDPIWRSRDEPFHYGNKMEQNQSQSPLQLLSQCNIRTSYSPGGQAAGAQPDMWAKHFSNPKRSSSMALKGHGGSFIQECREDYYPGRLMSQESYSDMSSQSFSETRGSIPVPKYEEEEEEEEEEGGISTQQCRPRRPLSSLKYTEDMTPTEQTPRGSMESLALSNATGLSAEGGAKRQEHLSRFSMPDLSKDSGMNVSEKLSNMGTLNSSMQFRSAESVRSLLSAQQYQEMEGNLHQLSNPLGYRDLQSHGRMHQSFDFDGGIASSKLPGQEGVHIQPMSERTRRRTTSRDDNRRFRPHRSRRSRRSRSDNALHLASEREVIARLKDRPPLRAREDYDQFVRQRSFQESMGQGSRRDLYSQCPRTVSDLALQNAFGERWGPYFTEYDWCSTCSSSSESDNEGYFLGEPIPQPARLRYVTSDELLHKYSSYGVPKSSTLGGRGQLHSRKRQKSKNCIIS
# What was measured:
# [1] = target: T1, GST-hPrickle2 (amino acid 585 to 844), second half of the C-terminal half of the protein including the C2 domain (human) (UniProt Q7Z3G6); experiment: pull-down; GST-Prickle2 fusion proteins on glutathione-Sepharose beads incubated overnight with lysate of HEK293T cells expressing AnkG270-GFP (tris-HCl pH 7.5, 5 mM EDTA, 150 mM NaCl, 1% Triton X-100, 0.5% SDS); washes with TBS and 0.1% Triton X-100; Western blot; only the target purified
# T1 sequence: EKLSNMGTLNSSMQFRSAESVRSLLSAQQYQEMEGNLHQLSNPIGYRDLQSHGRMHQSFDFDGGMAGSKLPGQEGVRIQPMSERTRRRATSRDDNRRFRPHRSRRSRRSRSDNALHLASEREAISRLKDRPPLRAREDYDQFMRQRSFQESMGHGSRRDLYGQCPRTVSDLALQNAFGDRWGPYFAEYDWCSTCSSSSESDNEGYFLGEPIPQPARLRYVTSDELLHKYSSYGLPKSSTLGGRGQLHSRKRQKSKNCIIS
# [2] = target: T2, GST-hPrickle2 (amino acid 127 to 323), contains the LIM domains (human) (UniProt Q7Z3G6); experiment: as above
# T2 sequence: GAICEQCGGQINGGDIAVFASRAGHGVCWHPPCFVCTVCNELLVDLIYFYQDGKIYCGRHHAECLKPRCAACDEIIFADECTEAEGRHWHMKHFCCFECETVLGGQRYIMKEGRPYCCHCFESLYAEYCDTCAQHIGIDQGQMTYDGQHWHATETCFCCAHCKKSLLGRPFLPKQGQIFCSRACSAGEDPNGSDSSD
# [3] = target: T3, Flag-hPrickle2 (human Prickle-like protein 2 tagged with three flag sequences in the N terminus) (human) (UniProt Q7Z3G6); experiment: co-IP; reverse co-IP: AnkG270-GFP co-precipitated with Flag-hPrickle2 (fig. S2B); details of this IP not told in the methods shown
# T3 sequence: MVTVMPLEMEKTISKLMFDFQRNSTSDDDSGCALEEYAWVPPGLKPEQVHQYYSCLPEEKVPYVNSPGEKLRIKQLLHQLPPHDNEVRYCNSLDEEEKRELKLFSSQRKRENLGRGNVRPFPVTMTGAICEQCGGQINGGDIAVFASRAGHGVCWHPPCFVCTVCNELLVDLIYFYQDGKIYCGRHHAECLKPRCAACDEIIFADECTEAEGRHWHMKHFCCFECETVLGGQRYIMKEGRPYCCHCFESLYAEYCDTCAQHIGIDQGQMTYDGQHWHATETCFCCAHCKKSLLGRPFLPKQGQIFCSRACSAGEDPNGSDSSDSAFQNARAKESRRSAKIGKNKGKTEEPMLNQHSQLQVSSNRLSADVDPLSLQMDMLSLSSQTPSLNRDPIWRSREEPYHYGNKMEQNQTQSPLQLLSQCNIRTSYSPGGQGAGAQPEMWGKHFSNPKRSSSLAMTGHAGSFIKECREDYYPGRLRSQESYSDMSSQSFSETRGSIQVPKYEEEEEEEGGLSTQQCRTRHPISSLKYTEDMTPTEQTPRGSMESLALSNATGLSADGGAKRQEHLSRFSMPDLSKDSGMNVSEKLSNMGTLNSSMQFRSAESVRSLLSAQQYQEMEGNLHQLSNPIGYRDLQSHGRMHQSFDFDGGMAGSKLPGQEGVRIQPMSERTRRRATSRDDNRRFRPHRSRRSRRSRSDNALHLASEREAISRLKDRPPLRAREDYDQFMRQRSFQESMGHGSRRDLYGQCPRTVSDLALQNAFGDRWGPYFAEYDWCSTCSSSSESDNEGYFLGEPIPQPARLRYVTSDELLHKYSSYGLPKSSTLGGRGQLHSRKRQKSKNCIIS
# [4] = target: AnkG270-GFP (270-kDa isoform of Ankyrin-G tagged with GFP) (UniProt O70511); experiment: co-IP; HEK293T cells co-transfected with AnkG-GFP constructs and Flag-hPrickle2; lysis in 50 mM tris-HCl pH 7.5, 150 mM NaCl, 2 mM EDTA, 1% Triton X-100; IP with rabbit anti-GFP (control rabbit IgG), protein A agarose, 4°C; Western blot
# [5] = target: Ankyrin-G, endogenous in P21 rat cortex (rat (endogenous in P21 cortex)) (UniProt O70511); experiment: co-IP; endogenous IP from P21 rat cortex lysate (50 mM tris pH 7.5, 150 mM NaCl, 2 mM EDTA, 1% Triton X-100) with guinea pig anti-AnkG (control guinea pig IgG), protein A/G agarose, 4°C; Western blot
molecule,measurement,setting,value
AnkG270-GFP (270-kDa isoform of Ankyrin-G tagged with GFP) (from UniProt O70511-1 1-2622),binding,[1],binds
same,binding,[2],binds
same,binding,[3],binds
B1,binding,[4],binds
B2,binding,[5],binds

# — publication PMC9462691
